The whole screen tested about 140,000 compounds, of which about 4,300 (3.1%) were called active. The inconclusive results got no clear call from the source; some entries with a clear call stand among them for comparison.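 The calls were made as follows: active = readout at or below -70, meaning at least 70% loss of cells showing the perinucleolar compartment, a nuclear body marking cancer cells; inconclusive = readout between -30 and a set limit; inactive = the rest.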
Assay: High Content Assay for Compounds that inhibit the Assembly of the Perinucleolar Compartment;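 also: plate controls were DMSO wells for no effect and camptothecin positive control wells for full effect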
Conditions: PC3M PTB-GFP, PNC prevalence imaging, 16 h; at 10 µM; active compounds read low
How it was run: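 Read-out is percentage of cells bearing a perinucleolar compartment, from automated 20x imaging of fixed, Hoechst-stained PC3M PTB-GFP cells. Cells were seeded 4 h, then exposed 16 h to compound (23 nl of library stock) in duplicate plates.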
In the case of `O=C(NC(=S)Nc1ccc(S(=O)(=O)Nc2nccs2)cc1)c1ccccc1`, the activity change (PNC), negative = inhibition is reported as inconclusive: -70%.
For `COC(=O)c1ccc(Cl)c(NC(=O)CSc2ncn[nH]2)c1`, the activity change (PNC), negative = inhibition was inconclusive: -45.3%.
For `COc1ccccc1N(CC(=O)NCCc1ccccc1)S(C)(=O)=O`, the activity change (PNC), negative = inhibition was inconclusive: -39.4%.
In the case of `O=C(NCCN1CCCC1)c1ccc2c(=O)n(CCc3ccccc3)c(=O)[nH]c2c1`, the activity change (PNC), negative = inhibition is reported as inactive: 12.6%.
In the case of `COc1ccc(NC(=O)CSc2nnc(CNc3ccc(F)cc3)o2)c(OC)c1`, the activity change (PNC), negative = inhibition is reported as inactive: -3.34%.
For `O=C1C2C3C=CC(O3)C2C(=O)N1CC(O)c1ccccc1` (centres undefined), the activity change (PNC), negative = inhibition was inactive: 10.8%.
For `O=C(COC(=O)CCSc1ccccc1Cl)Nc1ccc(F)cc1F`, the activity change (PNC), negative = inhibition was inconclusive: -42.1%.
For `COc1cc(C2C(C#N)=C(C)NC3=C2C(=O)c2ccccc23)cc(OC)c1OC` (centres undefined), the activity change (PNC), negative = inhibition was active: -116%.
With `COc1ccccc1C(=O)N1CCCC(c2nc(-c3cc(OC)c(OC)c(OC)c3)no2)C1` (centres undefined) the activity change (PNC), negative = inhibition was inactive: 27.5%.
In the case of `CCOC(=O)Cn1nnnc1CN(Cc1cccs1)Cc1cc2cc(C)ccc2[nH]c1=O`, the activity change (PNC), negative = inhibition is reported as inconclusive: -52.1%.
With `Cc1cnc(C(=O)Nc2nccs2)cn1` the activity change (PNC), negative = inhibition was inactive: 23.3%.
For `Cn1c(SCC#N)nnc1-c1ccc2c(c1)OCO2`, the activity change (PNC), negative = inhibition was active: -119%.
With `CCOC(=O)C1CCN(C(c2cc3ccc(C)c(C)c3[nH]c2=O)c2nnnn2C2CCCCC2)CC1` (centres undefined) the activity change (PNC), negative = inhibition was inactive: 15.9%.
With `CCOC(=O)c1sc(NC(=O)C2C3C=CC(C3)C2C(=O)O)nc1C` (centres undefined) the activity change (PNC), negative = inhibition was inactive: -4.34%.
With `Cc1noc(NS(=O)(=O)c2ccc(NC(=O)CSc3nc4c(cc3C#N)CCC4)cc2)c1C` the activity change (PNC), negative = inhibition was inactive: -1.14%.
With `Cc1ccc2c(CN3CCN(Cc4ccc5c(c4)OCO5)CC3)cc(=O)oc2c1C` the activity change (PNC), negative = inhibition was inconclusive: -50.8%.
For `Cc1ccc(-n2c(N)c(C(=O)N3CCCCC3)sc2=S)cc1`, the activity change (PNC), negative = inhibition was inconclusive: -38.6%.
In the case of `CCNc1ccc2noc3c2c1C(=O)c1ccccc1-3`, the activity change (PNC), negative = inhibition is reported as active: -100%.
In the case of `NC(=O)CC1NC(=O)c2ccccc21` (centres undefined), the activity change (PNC), negative = inhibition is reported as inconclusive: -65.2%.
In the case of `Cn1nnnc1SCC(=O)Nc1nc(-c2ccccc2)c(-c2ccccc2)o1`, the activity change (PNC), negative = inhibition is reported as inconclusive: -35.1%.
In the case of `O=C(Nc1nnc(-c2ccccn2)o1)c1cccc(Br)c1`, the activity change (PNC), negative = inhibition is reported as inconclusive: -52.2%.
In the case of `O=c1c2c(n3cnnc3n1-c1ccccc1)-c1ccccc1CC21CCCC1`, the activity change (PNC), negative = inhibition is reported as inactive: 19.1%.
With `N#CCCn1c(Cl)nc2ccccc21` the activity change (PNC), negative = inhibition was active: -86%.
In the case of `O=C(O)C1C2C=CC(C2)C1C(=O)NCCc1ccncc1` (centres undefined), the activity change (PNC), negative = inhibition is reported as inconclusive: -43.7%.
With `COCCn1c(=NC(=O)CSC(C)=O)sc2cc(F)ccc21` the activity change (PNC), negative = inhibition was inconclusive: -57.5%.
With `COc1ccc(NS(=O)(=O)c2c(C)[nH]c(=O)[nH]c2=O)c(OC)c1` the activity change (PNC), negative = inhibition was inconclusive: -76.5%.
For `O=C(Nc1ccccc1)c1cnc2ccccc2n1`, the activity change (PNC), negative = inhibition was active: -114%.
In the case of `Cc1nc([N+](=O)[O-])c(Sc2nc3ccc([N+](=O)[O-])cc3[nH]2)n1Cc1ccccc1`, the activity change (PNC), negative = inhibition is reported as inconclusive: -44.6%.
For `Cc1c(C(=O)N/N=C/c2ccc(O)cc2)sc(=S)n1C`, the activity change (PNC), negative = inhibition was inconclusive: -58.7%.
In the case of `CC(C)(CC(=O)O)Cc1nc(-c2ccc(Cl)cc2)no1`, the activity change (PNC), negative = inhibition is reported as inconclusive: -36.8%.
With `CC(C)c1c(O)nc(SCc2ccccc2)[nH]c1=O` the activity change (PNC), negative = inhibition was inconclusive: -70%.
With `O=C(O)C=C1CCN(c2ncc(C(F)(F)F)cc2Cl)CC1` the activity change (PNC), negative = inhibition was inactive: 53.2%.
For `O=C(c1sc2cc([N+](=O)[O-])ccc2c1Cl)N1CCCCC1`, the activity change (PNC), negative = inhibition was inactive: 4.07%.
For `CC1CC(C)CN(C(=O)CCCn2c(=S)[nH]c3ccccc3c2=O)C1` (centres undefined), the activity change (PNC), negative = inhibition was inactive: -10.2%.
For `COc1ccc(-n2c(Cc3cccn3C)nnc2SCC(=O)Nc2cccc(C)c2C)cc1`, the activity change (PNC), negative = inhibition was inactive: 44.7%.
With `O=C(Cc1cccs1)NCc1ccc(F)cc1` the activity change (PNC), negative = inhibition was inactive: 8.56%.
In the case of `COc1ccc(-c2cc3nc(C)cc(NCCO)n3n2)cc1`, the activity change (PNC), negative = inhibition is reported as inconclusive: -66%.
For `COc1cccc(CN(C)C(=O)c2ccc3nccnc3c2)c1`, the activity change (PNC), negative = inhibition was inactive: 22.7%.
For `CC(=O)Nc1c(Cl)n(C(C)=O)c2ccccc12`, the activity change (PNC), negative = inhibition was inconclusive: -52%.
In the case of `COc1cccc(C(=O)Nc2nc(-c3ccccc3)c(-c3ccccc3)o2)c1`, the activity change (PNC), negative = inhibition is reported as inconclusive: -48.3%.
With `COc1ccc(/C=C2\SC(N3CCc4ccccc4C3)=NC2=O)cc1OC` the activity change (PNC), negative = inhibition was inconclusive: -33.4%.
With `CC(NCCc1ccc(O)cc1)C(O)c1ccc(O)cc1` (centres undefined) the activity change (PNC), negative = inhibition was inactive: -4.36%.
For `CCOC(=O)C1=C(N)OC2=C(C(=O)CC(C)(C)C2)C1c1cccnc1` (centres undefined), the activity change (PNC), negative = inhibition was inconclusive: -34.3%.
For `COc1cc(NC(=O)Cn2nc(Cc3cccnc3)c3ccccc3c2=O)cc(OC)c1OC`, the activity change (PNC), negative = inhibition was inconclusive: -44.2%.
With `COCCNC(=O)c1ccc(N2CCC3(CC2)OCCO3)c([N+](=O)[O-])c1` the activity change (PNC), negative = inhibition was inactive: -24.5%.
For `O=C(O)CCC(=O)N1CCc2cc(S(=O)(=O)NC3CCCC3)ccc21`, the activity change (PNC), negative = inhibition was inactive: -3.54%.
In the case of `O=C(NNc1ccccc1Br)C(O)(c1cccc(C(F)(F)F)c1)c1cccc(C(F)(F)F)c1`, the activity change (PNC), negative = inhibition is reported as inconclusive: -72.5%.
For `O=C(Oc1ccc(N(Cc2cccs2)C2=NS(=O)(=O)c3ccccc32)cc1)c1ccccc1Cl`, the activity change (PNC), negative = inhibition was inconclusive: -59.4%.
For `COc1cccc(CC(=O)NCC2COc3ccccc3O2)c1OC` (centres undefined), the activity change (PNC), negative = inhibition was inconclusive: -45.4%.
With `CCOC(=O)c1sc(NC(=O)c2ccccc2OC)nc1C` the activity change (PNC), negative = inhibition was inconclusive: -30.1%.
With `O=C(CCCOc1ccccc1)Nc1nccs1` the activity change (PNC), negative = inhibition was inconclusive: -32.7%.
In the case of `Cc1ccc(S(=O)(=O)NC(CN2CCOCC2)=NCCNS(=O)(=O)c2ccccc2)cc1`, the activity change (PNC), negative = inhibition is reported as inactive: 17.1%.
With `Clc1ccc(CSc2nnc(-c3ccncc3)o2)cc1` the activity change (PNC), negative = inhibition was inactive: 48.7%.
In the case of `FC(F)(F)c1cccc(NC(=S)NCCc2ccccn2)c1`, the activity change (PNC), negative = inhibition is reported as inconclusive: -40.8%.
For `Cc1ccc(C(=O)OCC(=O)c2ccc(Cl)s2)s1`, the activity change (PNC), negative = inhibition was inactive: 10.1%.
With `Cn1c(Br)nc2c1c(=O)n(CC(O)COc1ccccc1)c(=O)n2C` (centres undefined) the activity change (PNC), negative = inhibition was inactive: -2.11%.
In the case of `O=S(=O)(c1ccc(Cl)cc1)N1CCN(c2nc(-c3cccs3)nc3ccccc23)CC1`, the activity change (PNC), negative = inhibition is reported as inconclusive: -55.9%.
For `CC(=O)NC1(C(F)(F)F)C(=O)NC(C)=C1C#N` (centres undefined), the activity change (PNC), negative = inhibition was inconclusive: -65.8%.
For `COc1ccc(C(=O)N/N=C/c2ccc(OC)c(CN3CCCc4ccccc43)c2)cc1`, the activity change (PNC), negative = inhibition was inconclusive: -53%.
